In publication PMC4460183, “Catalytic and hydrodynamic properties of styrene monooxygenases from Rhodococcus opacus 1CP are modulated by cofactor binding” (AMB Express, 2015) one finds binding data, which are given here for one molecule.

The target of this experiment is StyA styrene monooxygenase from Rhodococcus opacus 1CP (styABCD cluster) (Rhodococcus opacus 1CP). Nature of the experiment: condition: only with 12.7 µM FAD and 1 mM sodium dithionite (reduced FAD); SEC; analytical gel filtration, Superdex 200 HR 10/30, 22°C, 10 mM Tris-HCl pH 7.2, 500 mM NaCl; reduced holoenzyme, 12.7 µM FAD and 1 mM sodium dithionite, anaerobic buffer; both purified. (In gel filtration, larger molecules generally elute earlier.)

No constants are given. Whether binding was seen depends on the method and setting.

B1: StyA styrene monooxygenase from Rhodococcus opacus 1CP (styABCD cluster) (enzyme, UniProt A0A076JVU4 1-426, looked up)
chain: MSKRIAIVGAGTAGLHLGLYLNEKGIDATIFTDRRPEEYANIRLLNTVAHHSVTIDREDALGIDHWPNDGYFGHYYYVGIPGMPIRSYGDLAKPSRAVDYRILQPQLMRDFEERGGKIEYRPIRVEDLTVLSDDYDLVVIGTGKGGLGTLFARDEQSSPFTEPQRQLCVGIFKGIAPAETRAVTFCISPGAGEMIEIPTVTFSGDATALVFENHIGSDLEVLAHTRYEDDPRAFLDLMIEKLKQHYPITAERLDEKEFDVANSHLDILQGGVTPTVRHGHVKLDNGKLAVLLGDAHATVDPVLGQGGNMASYAAHVLGEEIAGNEVYDELFCERVDARRAGRVLGATRWTNFMLSNLKELPNHFVEFLGRVMMDRQLADRFTDNFNYPEKQWDIFSSPENMVAWIEANETGAEETERPFAQTGAQS
notes: StyA of the styABCD cluster, Rhodococcus opacus 1CP, 427 amino acid residues, calculated mass 46,580 Da; amplified from genomic DNA with printed primers that hold the start codon (NdeI CATATG) and the stop codon (TCA in the reverse primer); Apparent subunit mass 50 kDa including the His-tag (SDS-PAGE); also called holo-StyA; source: E. coli BL21, purified (HisTrap FF IMAC)
As for B1, the binding result is given as “no binding”.
